# The list shows a part of the results.
# B1: Erv46-EDTA (Saccharomyces cerevisiae), P39727 (protein)
# chain: MKFLVNVALVFMVVYISYIYAAAPEHHHHHHDYDIPTTENLYFQGAMDSVVTRPQLVVDRDRHAKLELNMDVTFPSMPCDLVNLDIMDDSGEMQLDILDAGFTMSRLNSEGRPVGDATELHVGGNGDGTAPVNNDPNYCGPCYGAKDQSQNENLAQEEKVCCQDCDAVRSAYLEAGWAFFDGKNIEQCEREGYVSKINEHLNEGCRIKGSAQINRIQGNLHFAPGKPYQNAYGHFHDTSLYDKTSNLNFNHIINHLSFGKPIQSHSKLLGNDKRHGGAVVATSPLDGRQVFPDRNTHFHQFSYFAKIVPTRYEYLDNVVIETAQFSATFHSRPLAGGRDKDHPNTLHVRGGIPGMFVFFEMSPLKVINKEQ
# How the values were obtained:
# Experiment in all cases: glycan array binding signal (z-score within array); higher = stronger binding
# Conditions in all cases: glycan notation: IUPAC condensed, linker removed
# [1] = molecular target: Gal3S4S(b1-4)GlcNAc
# Outline: (§1)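 Arrays were curated from the Consortium for Functional Glycomics database, 3228 in total, and kept only where the protein sequence was available. Binding is expressed as a within-array Z-score. This score was averaged across arrays of the same protein sequence at different concentrations or buffers and across linkers, and negative values can be read as non-binding.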
# [2] = molecular target: Gal3S6S(b1-4)GlcNAc
# Outline: as §1
# [3] = molecular target: Gal3S6S(b1-4)GlcNAc6S
# Outline: as §1
# [4] = molecular target: Gal4S(b1-4)GlcNAc
# Outline: as §1
# [5] = molecular target: Gal4S6S(b1-4)GlcNAc
# Outline: as §1
# [6] = molecular target: Gal6P(b1-4)GlcNAc
# Outline: as §1
# [7] = molecular target: Gal6S(b1-3)GlcNAc
# Outline: as §1
# [8] = molecular target: Gal6S(b1-3)GlcNAc6S
# Outline: as §1
# [9] = molecular target: Gal6S(b1-4)Glc
# Outline: as §1
# [10] = molecular target: Gal6S(b1-4)Glc6S
# Outline: as §1
# [11] = molecular target: Gal6S(b1-4)GlcNAc
# Outline: as §1
# [12] = molecular target: Gal6S(b1-4)GlcNAc6S
# Outline: as §1
# [13] = molecular target: GalNAc(a1-3)Gal
# Outline: as §1
# [14] = molecular target: GalNAc(a1-3)GalNAc
# Outline: as §1
# [15] = molecular target: GalNAc(a1-3)GalNAc(b1-3)Gal(a1-4)Gal(b1-4)Glc
# Outline: as §1
# [16] = molecular target: GalNAc(a1-3)GalNAc(b1-3)Gal(a1-4)Gal(b1-4)GlcNAc
# Outline: as §1
# [17] = molecular target: GalNAc(b1-3)Gal
# Outline: as §1
# [18] = molecular target: GalNAc(b1-3)Gal(a1-4)Gal(b1-4)GlcNAc
# Outline: as §1
# [19] = molecular target: GalNAc(b1-3)Gal(a1-4)Gal(b1-4)GlcNAc(b1-3)Gal(b1-4)Glc
# Outline: as §1
# [20] = molecular target: GalNAc(b1-3)Gal(a1-6)Gal(b1-4)Glc
# Outline: as §1
# [21] = molecular target: GalNAc(b1-3)GalNAc
# Outline: as §1
# [22] = molecular target: GalNAc(b1-3)GlcNAc
# Outline: as §1
# [23] = molecular target: GalNAc(b1-4)Gal(b1-4)Glc
# Outline: as §1
# [24] = molecular target: GalNAc(b1-4)GlcNAc
# Outline: as §1
# [25] = molecular target: GalNAc(b1-4)GlcNAc(b1-2)Man
# Outline: as §1
# [26] = molecular target: GalNAc(b1-4)GlcNAc(b1-2)Man(a1-3)[GalNAc(b1-4)GlcNAc(b1-2)Man(a1-6)]Man(b1-4)GlcNAc(b1-4)GlcNAc
# Outline: as §1
# [27] = molecular target: GalNAc(b1-4)GlcNAc(b1-3)GalNAc(b1-4)GlcNAc
# Outline: as §1
# [28] = molecular target: GalNAc(b1-4)GlcNAc6S
# Outline: as §1
# [29] = molecular target: GalNAc(b1-6)GalNAc
# Outline: as §1
# [30] = molecular target: GalNAc3S(b1-4)GlcNAc
# Outline: as §1
# [31] = molecular target: GalNAc3S(b1-4)GlcNAc3S
# Outline: as §1
# [32] = molecular target: GalNAc3S(b1-4)[Fuc(a1-3)]GlcNAc
# Outline: as §1
# [33] = molecular target: GalNAc4S6S(b1-4)GlcNAc
# Outline: as §1
# [34] = molecular target: GalNAc6S(b1-4)GlcNAc
# Outline: as §1
# [35] = molecular target: Glc(a1-4)Glc
# Outline: as §1
# [36] = molecular target: Glc(a1-4)Glc(a1-4)Glc(a1-4)Glc
# Outline: as §1
# [37] = molecular target: Glc(a1-6)Glc(a1-6)Glc
# Outline: as §1
# [38] = molecular target: Glc(a1-6)Glc(a1-6)Glc(a1-6)Glc
# Outline: as §1
binder,measurement,setting,value
B1,glycan array binding signal (z-score),[1],0.107
same,glycan array binding signal (z-score),[2],-0.461
same,glycan array binding signal (z-score),[3],0.056
same,glycan array binding signal (z-score),[4],-0.26
same,glycan array binding signal (z-score),[5],-0.157
same,glycan array binding signal (z-score),[6],-0.001
same,glycan array binding signal (z-score),[7],-0.805
same,glycan array binding signal (z-score),[8],-0.85
same,glycan array binding signal (z-score),[9],0.14
same,glycan array binding signal (z-score),[10],-0.774
same,glycan array binding signal (z-score),[11],1.19
same,glycan array binding signal (z-score),[12],-0.685
same,glycan array binding signal (z-score),[13],-1.24
same,glycan array binding signal (z-score),[14],-0.107
same,glycan array binding signal (z-score),[15],-0.326
same,glycan array binding signal (z-score),[16],-0.623
same,glycan array binding signal (z-score),[17],-0.834
same,glycan array binding signal (z-score),[18],0.221
same,glycan array binding signal (z-score),[19],-0.404
same,glycan array binding signal (z-score),[20],0.442
same,glycan array binding signal (z-score),[21],-0.335
same,glycan array binding signal (z-score),[22],-0.295
same,glycan array binding signal (z-score),[23],-0.674
same,glycan array binding signal (z-score),[24],0.697
same,glycan array binding signal (z-score),[25],0.086
same,glycan array binding signal (z-score),[26],1
same,glycan array binding signal (z-score),[27],-0.443
same,glycan array binding signal (z-score),[28],-0.064
same,glycan array binding signal (z-score),[29],-0.213
same,glycan array binding signal (z-score),[30],-0.724
same,glycan array binding signal (z-score),[31],0.434
same,glycan array binding signal (z-score),[32],-0.49
same,glycan array binding signal (z-score),[33],-0.841
same,glycan array binding signal (z-score),[34],-0.013
same,glycan array binding signal (z-score),[35],-0.133
same,glycan array binding signal (z-score),[36],-0.298
same,glycan array binding signal (z-score),[37],0.281
same,glycan array binding signal (z-score),[38],-0.452

# Shown tab-delimited: entries from further up.
binder	measurement	setting	value
B1	glycan array binding signal (z-score)	[2]	-0.461
same	glycan array binding signal (z-score)	[8]	-0.85
same	glycan array binding signal (z-score)	[10]	-0.774
same	glycan array binding signal (z-score)	[15]	-0.326
same	glycan array binding signal (z-score)	[19]	-0.404
same	glycan array binding signal (z-score)	[25]	0.086
same	glycan array binding signal (z-score)	[27]	-0.443
same	glycan array binding signal (z-score)	[28]	-0.064
same	glycan array binding signal (z-score)	[29]	-0.213
same	glycan array binding signal (z-score)	[36]	-0.298

# Source: the supplement of paper PMC8728848
